No constants are given. Whether binding was seen depends on the method and setting. A result given as binding can be weak or reduced; the word gives no strength. Tags and fused reporters may be left off the sequences shown. For part of these data: Binding seen in cells or lysates may run through a third protein.
T1: FAP45 (flagellar-associated protein 45) (Chlamydomonas (endogenous in axonemes)) (UniProt A8I9E8)
T1 sequence: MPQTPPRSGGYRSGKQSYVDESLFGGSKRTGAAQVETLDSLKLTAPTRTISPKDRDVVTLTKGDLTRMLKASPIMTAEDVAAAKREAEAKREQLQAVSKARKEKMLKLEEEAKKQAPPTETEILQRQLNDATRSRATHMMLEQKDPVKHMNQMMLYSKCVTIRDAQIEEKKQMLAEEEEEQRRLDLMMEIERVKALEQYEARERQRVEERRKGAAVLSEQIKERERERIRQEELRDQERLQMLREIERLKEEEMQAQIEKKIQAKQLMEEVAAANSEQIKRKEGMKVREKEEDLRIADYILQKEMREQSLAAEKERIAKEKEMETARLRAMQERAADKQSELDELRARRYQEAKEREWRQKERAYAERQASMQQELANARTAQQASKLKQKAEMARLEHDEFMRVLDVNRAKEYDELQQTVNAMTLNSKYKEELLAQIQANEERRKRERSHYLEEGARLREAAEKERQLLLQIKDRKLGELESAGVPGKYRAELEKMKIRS

B1: FAP52 (flagellar-associated protein 52) (natural protein, Chlamydomonas (endogenous in axonemes), UniProt A8ILK1 1-615, looked up)
chain: MAEPLVLNSVIGFGGAIENGLIAHPDGRTIIYPLGSTIVLRDRADPRSQEFLQGHSDKVSCLALSRSGRYLASGQITYMGFTADIIIWDLESKQLIHRMALHKVKVQALDFSCDERFLASLGGQDDNALVLWDVASGNAICGSPCNTNFTNCVKFFNNSPDKLITAGNFNMNVWTYDAGNNKLRPTDATLGTLKRVFKSVVVDANDEYAYCGTTTGDVLQIALERVLFKNTGPAKGNVQMGVTATCEVPTGDILVGGGDGSLQLLRKMPALAGTKVEGAITSIALADMNARGFTFFVGTAMCNIYKPATSRLKEELVQTAHNDKINGMAFPNEYSEVFATCGTGFIRLWHLTTCRELLRIAVPNLECFCIAFTTDGSAILSGWSDGKIRAFGPQSGKIIFTINDAHQKAVTAIASTADSSRILSGGEEGMVRVWRIGRTSQTLEASMKDHKGPVNCIRIKGSGDECVSASSDGSCILWDLHTFKRRTSLFANTFFKSVVYHPDESQLVTAGTDRKVTYWDAYDGNAIRIIDGSDLDEVNALAVDRDGEALVSGGGDKLVKLWGYDEGHCYFVGVAHSGAITAVGVTPDKQRIVSVGTEGGIFIWDYQRPQTLADI

Tests used:
[1] = target: T1, FAP45 (flagellar-associated protein 45) (Chlamydomonas (endogenous in axonemes)); assay: cryo-electron tomography with subtomogram averaging
[2] = target: T1, FAP45 (flagellar-associated protein 45) (Chlamydomonas (endogenous in axonemes)); assay: cross-linking
[3] = target: tubulin (Chlamydomonas (endogenous in axonemes)); assay: cryo-electron tomography with subtomogram averaging

Molecule | binding [1] | binding [2] | binding [3]
tubulin (Chlamydomonas (endogenous in axonemes)) (complex) | binds | binds | –
B1 | – | – | binds
